PubChem BioAssay AID1159584 | Peter MacCallum Cancer Centre, 2016
Here is an unselected part of about 18,000 deposited reagents. No sequences are given here. Not stated in the record: the amount of reagent, the time to read-out.

Test: 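Genes whose loss is lethal only together with E-cadherin loss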 (primary screen)
Cells: human MCF10A breast epithelial cells, parental and CDH1-null
Knock-down reagent: siRNA against human genes
Detection: 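Cell viability by CellTiter-Glo ATP luminescence, each line scaled to the mean of mock wells across plates, then CDH1-null over parental ratio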
Reading the numbers: CDH1-null / parental viability ratio: higher = CDH1-null cells survive relatively better than parental; CDH1-null viability vs mock: higher = more viable CDH1-null cells; parental viability vs mock: higher = more viable parental cells

Gene | CDH1-null / parental viability ratio | CDH1-null viability vs mock (fraction of mock) | parental viability vs mock (fraction of mock)
LYVE1 | 0.66 | 0.42 | 0.64
OR5A2 | 1.09 | 1 | 0.92
PEX2 | 0.91 | 0.73 | 0.8
PDPK1 | 0.88 | 0.85 | 0.97
FCHO1 | 0.78 | 0.45 | 0.58
TYK2 | 1.23 | 0.9 | 0.73
LRRD1 | 0.94 | 0.96 | 1.02
UBE3D | 1.15 | 0.68 | 0.59
PELP1 | 1.06 | 0.84 | 0.79
FTL | 1.07 | 0.9 | 0.84
SEM1 | 0.99 | 0.82 | 0.83
TCHP | 1.05 | 1.16 | 1.1
DIPK2B | 0.82 | 0.74 | 0.9
RNF14 | 0.94 | 0.58 | 0.62
CYP4F22 | 0.88 | 1.05 | 1.2
HPDL | 0.82 | 0.66 | 0.8
LSM3 | 1.14 | 0.66 | 0.58
VAMP4 | 1.04 | 0.83 | 0.8
DCBLD1 | 0.92 | 0.9 | 0.98
ARID1A | 0.83 | 0.8 | 0.96
ASIC1 | 1.26 | 1.01 | 0.8
ST7 | 1.38 | 0.65 | 0.47
GET1 | 1.07 | 0.9 | 0.84
SOS1 | 0.94 | 0.75 | 0.8
TPM1 | 1.28 | 0.92 | 0.72
FCRL5 | 1.36 | 1.09 | 0.8
GRID1 | 1.18 | 0.84 | 0.71
ENPP3 | 0.9 | 0.76 | 0.84
DLX6 | 0.93 | 0.66 | 0.71
ESF1 | 0.68 | 0.6 | 0.88
OR5V1 | 1.41 | 0.62 | 0.44
SFRP4 | 0.78 | 0.61 | 0.78
PJVK | 1.11 | 0.99 | 0.89
CAPN15 | 1.32 | 0.78 | 0.59
PLIN5 | 1.25 | 0.65 | 0.52
OR2S2 | 1.16 | 0.66 | 0.57
SLC38A3 | 0.91 | 0.39 | 0.43
HECTD1 | 1.02 | 0.86 | 0.84
CCDC120 | 0.64 | 0.48 | 0.75
ABR | 1.22 | 0.98 | 0.8
CCNA2 | 1.04 | 0.94 | 0.9
PLAC4 | 1.07 | 0.88 | 0.82
DCAF5 | 0.92 | 0.7 | 0.76
EIF5A2 | 0.93 | 0.7 | 0.75
PDXK | 0.98 | 0.85 | 0.87
U2AF1L4 | 1.53 | 0.84 | 0.55

In a second layout: 7 of the entries above
Gene	CDH1-null / parental viability ratio	CDH1-null viability vs mock (fraction of mock)	parental viability vs mock (fraction of mock)
OR2S2	1.16	0.66	0.57
SLC38A3	0.91	0.39	0.43
HECTD1	1.02	0.86	0.84
CCDC120	0.64	0.48	0.75
ABR	1.22	0.98	0.8
CCNA2	1.04	0.94	0.9
PLAC4	1.07	0.88	0.82
